Values of other authors, collected in patent US20160250177A1, “MODIFIED DOCETAXEL LIPOSOME FORMULATIONS AND USES THEREOF” (MALLINCKRODT LLC, priority 2015, published 2016).
The name of at least one read-out is uncertain.

Settings: plasma; therapeutic window, FIG. 2; cited from earlier work

Structure (SMILES): CC(=O)O[C@@]12CO[C@@H]1C[C@H](O)[C@@]1(C)C(=O)[C@H](O)C3=C(C)[C@@H](OC(=O)[C@H](O)[C@@H](NC(=O)OC(C)(C)C)c4ccccc4)C[C@@](O)([C@@H](OC(=O)c4ccccc4)[C@H]21)C3(C)C [Docetaxel, docetaxel]
- docetaxel AUC associated with increased incidence of adverse effects: greater than 1.42 μg*hr/ml
